PubChem BioAssay AID540256 (National Center for Advancing Translational Sciences (NCATS), 2011)
Screen size: about 300,000 compounds; about 3,700 (1.2%) were called active. The shares of active, inactive and inconclusive entries below differ from those in the screen. Calls follow the shape of the full dose curve; tested in HEK293 cells. Potencies of inconclusive entries are doubtful fits and often do not repeat.

Experiment: qHTS for Inhibitors of binding or entry into cells for Lassa Virus; also: nearly all actives have a fitted effect of over 50% in size
Conditions: Lassa virus pseudotype entry inhibition, cell reporter; series mostly up to 37.9 µM
Potency is read from the fitted curve at half-maximal effect.

| SMILES | Potency |
| --- | --- |
| Cc1cccc(N2C(=O)NC(=O)/C(=C/c3ccc([N+](=O)[O-])o3)C2=O)c1 | inactive |
| COc1ccc(OC)c(CNC(=O)CCS(=O)(=O)c2ccc3c(c2)oc(=O)n3C)c1 | inconclusive: 8.91 µM [activator, partial curve, poor fit] |
| COc1cccc(NC(=O)CN(C)C(=O)c2ccc(COc3ccccc3)cc2)c1 | inactive |
| COc1ccc2[nH]c(C(=O)NCCN3CCCCC3)cc2c1 | inactive |
| COc1ccccc1CCNC(=O)c1ccc2nc[nH]c2c1 | inconclusive: 35.5 µM [activator, single point] |
| COCCCNC(=O)CCCN1C(=O)CCn2nc(-c3cn(C)c4ccccc34)cc21 | inactive |
| O=[N+]([O-])c1cccc(Nc2c([N+](=O)[O-])ccc3nonc23)c1 | inactive |
| CS(=O)(=O)c1nc(-c2ccccc2)cc(-c2ccccc2)c1C#N | active: 14.6 µM |
| COc1ccc(-n2c(COc3cccc4ccccc34)nnc2SCC#N)cc1 | inconclusive: 35.5 µM [inhibitor, single point] |
| O=C(N/N=C/C(Cl)=C\c1ccccc1)c1ccco1 | inconclusive: 3.55 µM [inhibitor, single point] |
| CCOC(=O)N1CCC(NC(=O)c2cnn(-c3ccccc3)c2C2CCN(C(=O)OC(C)(C)C)CC2)CC1 | inconclusive: 11.2 µM [activator, partial curve, poor fit] |
| O=C(CCCCCCN1C(=O)c2ccccc2C1=O)N1CCC(c2ccccc2)C1 (configuration not stated) | inconclusive: 20 µM [inhibitor, single point] |
| Cc1ccc(NC(=O)CSc2ncccc2C(=O)Oc2cccc([N+](=O)[O-])c2)cc1Cl | inconclusive: 12.6 µM [inhibitor, single point] |
| CCC(=O)Nc1ccc(S(=O)(=O)NCc2cccn2Cc2cccc(C)c2)cc1 | inconclusive: 28.2 µM [inhibitor, partial curve, poor fit] |
| Cc1ccc(S(=O)(=O)N(CC(=O)NCc2ccco2)Cc2ccc(F)cc2)cc1 | inactive |
| COc1ccc(OC)c(CNC(=O)c2cc(=O)[nH]c3ccc(S(=O)(=O)N4CCCCC4C)cc23)c1 (configuration not stated) | inconclusive: 35.5 µM [inhibitor, single point] |
| COc1ccc(N2C(=O)CCC(C(=O)O)C2c2ccc(F)cc2)cc1 (configuration not stated) | inactive |
| NC(=S)NNC(=O)C12CC3CC(CC(C3)C1)C2 | inconclusive: 29.1 µM [inhibitor, single point] |
| COc1ccc(C(=O)c2ccc(OC)c(Br)c2)cc1Br | inconclusive: 8.91 µM [inhibitor, partial curve, poor fit] |
| Cc1cc(C)c2c(CN(Cc3ccccc3)Cc3ccccc3)cc(=O)oc2c1 | active: 22.3 µM |
| O=C(CCNS(=O)(=O)c1cccc2nsnc12)Nc1ccc(F)cc1 | inactive |
| O=C(OCc1cccc(Cl)c1)c1cc(S(=O)(=O)N2CCCCC2)ccc1N1CCOCC1 | inconclusive: 22.4 µM [inhibitor, single point] |
| CCCSc1nnc2n(-c3ccccc3OC)c(=O)c3c4c(sc3n12)CCC4 | inconclusive: 5.62 µM [inhibitor, partial curve, poor fit] |

| SMILES | Potency |
| --- | --- |
| O/N=C(\c1ccc(Cl)cc1)c1cc2ccccc2o1 | inconclusive: 18.3 µM [inhibitor, partial curve, poor fit] |
| O=C1c2ccccc2NC2CCCCC12 (configuration not stated) | inactive |
| CNC(=O)COc1ccc(Nc2nnc(-c3ccc(C)c(S(N)(=O)=O)c3)c3ccccc23)cc1 | inconclusive: 1.26 µM [inhibitor, single point] |
| O=C(CCCSc1nc2ccccc2[nH]1)NCc1ccc(Cl)cc1 | inconclusive: 0.116 µM [inhibitor, full curve, poor fit] |
| O=C(NC(Nc1nc2ccc([N+](=O)[O-])cc2s1)(C(F)(F)F)C(F)(F)F)c1ccccc1 | active: 0.92 µM |
| Nc1c(-c2ccccc2)c(CSc2nc3ccccc3[nH]2)nn1-c1cccc(Cl)c1 | inconclusive: 16.4 µM [inhibitor, single point] |
| CCC(C)c1ccccc1OCCOCCN1CCCC1 (configuration not stated) | active: 18.4 µM |
| N#Cc1cc2c(=O)n3ccccc3nc2n(Cc2ccco2)c1=NC(=O)c1ccco1 | inconclusive: 1.26 µM [activator, single point] |
| Cc1cccc(-n2ncc(C(=O)NCc3ccc4c(c3)OCO4)c2C2CCN(C(=O)OC(C)(C)C)CC2)c1 | inconclusive: 7.94 µM [inhibitor, partial curve] |
| Cc1ccc([C@H]2C[C@@H](n3cc(COC(=O)c4ccccc4)nn3)[C@H](O)CN2CC2CCCCC2)cc1 | inconclusive: 15.8 µM [inhibitor, partial curve, poor fit] |
| Cc1ccc(C(=O)Oc2cccc(NC(=O)c3ccccc3)c2)cc1C | inconclusive: 1.26 µM [inhibitor, single point] |
| CCOc1c(Br)ccc2c1sc1nc[nH]c(=O)c12 | inconclusive: 31.6 µM [activator, partial curve, poor fit] |
| Cc1cc(N2CCCC2=O)cc(C)c1S(=O)(=O)NCCOc1ccc(C(C)(C)C)cc1 | active: 11.6 µM |
| CCc1ccccc1NC(=O)Nc1ccc2snnc2c1 | inconclusive: 17.8 µM [activator, single point] |
| O=C(CNCC1CCCO1)N1CCCCCC1 (configuration not stated) | inactive |
| COc1ccc(CNCc2ccco2)cc1OCc1ccccc1 | inactive |
| CN(C(=O)c1ccc(OC2CCN(Cc3ccccn3)CC2)cc1)C1CCCCC1 | inactive |
| O=C(CC1C(=O)NCCN1Cc1ccoc1)NCCc1ccc(Cl)cc1 (configuration not stated) | inconclusive: 7.08 µM [inhibitor, partial curve] |
| Cc1ccc(CNC(=O)CSc2c(C(C)C)cnc3c2c(=O)n(C)c(=O)n3C)cc1 | inactive |
| CCCCNC(=O)CC1N=C2c3ccccc3N=C(SCC(=O)Nc3ccccc3OC)N2C1=O (configuration not stated) | inactive |
| Cc1ccc(C)n1-c1ccc(-c2ccnc(N)n2)cc1 | inconclusive: 35.5 µM [inhibitor, single point] |
| CCOc1cc(/C=C(\C#N)C(=O)Nc2ccc(OC)cc2)ccc1OCc1cc(=O)n2nc(CC)sc2n1 | inactive |
| COc1ccc(CNCc2c(F)cccc2F)cc1OC | inactive |

Rewritten with tabs: part of the list above
SMILES	Potency
O/N=C(\c1ccc(Cl)cc1)c1cc2ccccc2o1	inconclusive: 18.3 µM [inhibitor, partial curve, poor fit]
CCC(C)c1ccccc1OCCOCCN1CCCC1 (configuration not stated)	active: 18.4 µM

In another format: entries from further up.
SMILES	Potency
COc1ccc(CNCc2ccco2)cc1OCc1ccccc1	inactive
CN(C(=O)c1ccc(OC2CCN(Cc3ccccn3)CC2)cc1)C1CCCCC1	inactive

Additional records.

| SMILES | Potency |
| --- | --- |
| CCCCNC(=O)N(O)C1N(/N=C/c2ccccc2O)C(=S)SC1(C)C (configuration not stated) | inconclusive: 28.2 µM [inhibitor, partial curve, poor fit] |
| Cc1ccc(NC(=O)C2CCCN(C(=O)c3ccc(Cl)cc3)C2)cc1S(=O)(=O)N1CCOCC1 (configuration not stated) | inconclusive: 11.2 µM [inhibitor, partial curve, poor fit] |
| COc1ccc(N2C(=O)CC(Sc3nnnn3-c3ccc(F)cc3)C2=O)cc1 (configuration not stated) | inconclusive: 20 µM [inhibitor, partial curve, poor fit] |
| CCCNC(=O)c1nn2c(C(F)(F)F)cc(-c3ccccc3)nc2c1Cl | inconclusive: 1.12 µM [inhibitor, full curve, poor fit] |
| O=C(Nc1ccc(S(=O)(=O)N2CCCCCC2)cc1)c1c(F)cccc1F | inconclusive: 5.62 µM [activator, single point] |
| Cc1cnc(C(=O)OCC(=O)Nc2cccc(C)c2C)cn1 | inconclusive: 10 µM [activator, partial curve, poor fit] |
| Cc1ccc(-c2nc3scc(CCNS(=O)(=O)c4ccc(Oc5ccccc5)cc4)n3n2)cc1 | inconclusive: 35.5 µM [inhibitor, single point] |
| CCOC(=O)c1c(-c2ccccc2)csc1NC(=O)c1nc(SCC)ncc1Cl | inactive |
| Cn1c(=O)c2c(nc(SCc3nc(N)nc(N4CCCCC4)n3)n2C)n(C)c1=O | inconclusive: 0.0065 µM [inhibitor, full curve, poor fit] |
| CCCN1CCN(C(=O)Nc2ccc(OCC)cc2)CC1 | inconclusive: 5.17 µM [activator, partial curve, poor fit] |
| CCCCn1nc(C(=O)Nc2ccccc2N2CCCC2)c2ccccc2c1=O | inconclusive: 35.5 µM [inhibitor, single point] |
| CC(=O)Nc1cccc(N(C(=O)C2COc3ccccc3O2)C(C(=O)NC2CCCCC2)c2cn(C)nc2C)c1 (configuration not stated) | inconclusive: 35.5 µM [inhibitor, single point] |
| CN(C(=O)CSc1ncnc2ccccc12)C1CCCCC1 | inconclusive: 6.31 µM [activator, single point] |
| Cc1ccc(-n2cc(-c3ccccc3)c3c(N4CCN(C)CC4)ncnc32)cc1 | inconclusive: 17.8 µM [inhibitor, partial curve, poor fit] |
| CC(C)(C)C(=O)COC(=O)c1cc(-c2ccncc2)nc2ccccc12 | inconclusive: 31.6 µM [inhibitor, single point] |
| CCOc1ccc(S(=O)(=O)Nc2ccc(C(=O)N/N=C(\C)c3ccc(-n4ccnc4)cc3)cc2)cc1 | inconclusive: 29.1 µM [inhibitor, single point] |
| CC(C)c1cc(N=O)cc(C(C)C)c1O | inactive |
| CCc1nnc(NC(=O)C2CCCN(c3nc(C)cc(C)n3)C2)s1 (configuration not stated) | inactive |
| CSCCC(NS(=O)(=O)c1ccc2ccccc2c1)C(=O)OCC(=O)c1ccc(C(C)C)cc1 (configuration not stated) | inconclusive: 3.98 µM [inhibitor, partial curve, poor fit] |
| COc1ccc(C)cc1NC(=O)CSc1nnc(COc2ccc(C)cc2)n1Cc1ccco1 | inconclusive: 11.2 µM [inhibitor, single point] |
| CCCCN(C)CCNC(=O)c1cc(-c2ccc(Cl)s2)nc2ccccc12 | inconclusive: 6.31 µM [activator, single point] |
